# Results published in the supplement of paper PMC6331611.
# Where a name gives a salt, the structure may show the parent alone. ± gives the standard deviation of the averaged measurements. The full ranking holds about 1,600 compounds; the median of “normalized intracellular growth (luminescence, IQM-normalized) in RAW264.7 macrophages” is about 1, and the lowest 2% start at about 0.43. The list shows a part of the results.
# Tested on: Salmonella enterica serovar Typhimurium SL1344
# Test: normalized intracellular growth (luminescence, IQM-normalized) in RAW264.7 macrophages (fraction of plate interquartile mean); higher = more bacterial growth (less inhibition)
# Details: 10 µM
Compound,normalized intracellular growth (time point: T3 (3 h)),normalized intracellular growth (time point: Tfinal (~6 h))
CN(Cc1cc(Br)cc(Br)c1N)C1CCCCC1,1 ± 0.011,0.979 ± 0.0081
C[C@H](CS)C(=O)N1CCC[C@H]1C(=O)O,1.09 ± 0.021,1.07 ± 0.036
NCCc1ccc(O)c(O)c1,1.02 ± 0.045,1 ± 0.084
COc1ccc(-c2ccc3cc(C(=O)O)ccc3c2)cc1C12CC3CC(CC(C3)C1)C2,1.03 ± 0.045,0.923 ± 0.41
CCN1CCCC1CNC(=O)c1cc(S(N)(=O)=O)ccc1OC (configuration not stated),0.968 ± 0.025,1.02 ± 0.1
CCCCc1oc2ccccc2c1C(=O)c1cc(I)c(OCCN(CC)CC)c(I)c1,1 ± 0.048,1.01 ± 0.07
Cc1cccc(N(C)C(=S)Oc2ccc3ccccc3c2)c1,0.8168 ± 0.0041,0.932 ± 0.087
N[C@@H](COP(=O)(O)O)C(=O)O,1.01 ± 0.071,0.987 ± 0.095
O=c1[nH]c(=O)n([C@H]2C[C@H](O)[C@@H](CO)O2)cc1I,1.005 ± 0.0041,1.01 ± 0.2
CC1(C)O[C@@H]2C[C@H]3[C@@H]4C[C@H](F)C5=CC(=O)CC[C@]5(C)[C@H]4[C@@H](O)C[C@]3(C)[C@]2(C(=O)CO)O1,1 ± 0.082,1 ± 0.024
CCC(=O)OCC(=O)[C@@]1(OC(=O)CC)[C@@H](C)C[C@H]2[C@@H]3CCC4=CC(=O)C=C[C@]4(C)[C@@]3(F)[C@@H](O)C[C@@]21C,1.02 ± 0.042,0.958 ± 0.024
NNC(=O)c1ccncc1,1.01 ± 0.018,1.01 ± 0.098
CC/C=C\C/C=C\C/C=C\C/C=C\C/C=C\C/C=C\CCC(=O)O,0.977 ± 0.069,1.02 ± 0.09
CCCCC(CC)COc1ccc(-c2nc(-c3ccc(OC)cc3)nc(-c3ccc(OCC(CC)CCCC)cc3O)n2)c(O)c1 (configuration not stated),1.02 ± 0.065,1.1 ± 0.17
CN1CCCN=C1/C=C/c1cccs1,1.05 ± 0.043,1.13 ± 0.093
CCC[C@@H]1C[C@@H](C(=O)N[C@@H]([C@H]2O[C@H](SC)[C@H](O)[C@@H](O)[C@H]2O)[C@@H](C)O)N(C)C1,1.07 ± 0.045,1.02 ± 0.042
O=c1cc[nH]c(=O)[nH]1,0.935 ± 0.09,0.9 ± 0.052
Nc1ccc(S(=O)(=O)O)cc1.Nc1ccc(S(=O)(=O)O)cc1.[Zn],1.01 ± 0.047,1.15 ± 0.099
C#C[C@]1(O)CC[C@H]2[C@@H]3CCC4=Cc5oncc5C[C@]4(C)[C@H]3CC[C@@]21C,0.982 ± 0.01,0.976 ± 0.073
CCOc1ccc(Cc2nccc3cc(OCC)c(OCC)cc23)cc1OCC,0.925 ± 0.09,0.43 ± 0.11
O=C(Nc1ccc([N+](=O)[O-])cc1Cl)c1cc(Cl)ccc1O,1.17 ± 0.064,0.514 ± 0.088
CN1C(C(=O)Nc2ccccn2)=C(O)c2sc(Cl)cc2S1(=O)=O,1.02 ± 0.021,0.807 ± 0.14

Compound,normalized intracellular growth (time point: T3 (3 h)),normalized intracellular growth (time point: Tfinal (~6 h))
CC12CC3CC(C)(C1)CC(N)(C3)C2,0.987 ± 0.018,1.12 ± 0.23
Nc1ccc(S(=O)(=O)Nc2nccs2)cc1,1.2 ± 0.14,1.26 ± 0.098
Cc1ccc(-c2cc(C(F)(F)F)nn2-c2ccc(S(N)(=O)=O)cc2)cc1,1.02 ± 0.1,0.848 ± 0.12
CC(C)[N+]1(C)[C@@H]2CC[C@H]1C[C@@H](OC(=O)C(CO)c1ccccc1)C2 (some centres not stated),1 ± 0.096,0.779 ± 0.087
CC[C@H]1OC(=O)[C@H](C)[C@@H](O[C@H]2C[C@@](C)(OC)[C@@H](O)[C@H](C)O2)[C@H](C)[C@@H](O[C@@H]2O[C@H](C)C[C@H](N(C)C)[C@H]2O)[C@](C)(O)C[C@@H](C)CN(C)[C@H](C)[C@@H](O)[C@]1(C)O,1.05 ± 0.039,0.00697 ± 0.00054
CN[C@H]1CC[C@@H](c2ccc(Cl)c(Cl)c2)c2ccccc21,0.689 ± 0.092,1 ± 0.047
CCN(CC)CCNC(=O)c1ccc(N)cc1,0.968 ± 0.13,1.05 ± 0.13
NC[C@H](O)c1ccc(O)c(O)c1,0.998 ± 0.033,0.948 ± 0.096
CCCCCCOc1ccccc1C(N)=O,1.06 ± 0.059,0.999 ± 0.025
O=C(O)C1=C(CSc2nnnn2CS(=O)(=O)O)CS[C@@H]2[C@H](NC(=O)[C@H](O)c3ccccc3)C(=O)N12,0.979 ± 0.034,0.824 ± 0.19
Cc1cc2cc3c(C)cc(=O)oc3c(C)c2o1,0.871 ± 0.046,0.956 ± 0.06
CC(=O)Nc1c(I)cc(I)c(C(=O)O)c1I,0.99 ± 0.042,0.715 ± 0.31
CC(=O)Nc1nnc(S(N)(=O)=O)s1,0.933 ± 0.088,1.01 ± 0.076
CC(C)Oc1ccc2c(=O)c(-c3ccccc3)coc2c1,0.959 ± 0.051,1.02 ± 0.078
O=C(CCCl)NCCc1ccccc1,1.055 ± 0.0032,1.02 ± 0.1
CCCCOc1cc(C(=O)OCCN(CC)CC)ccc1N,1.25 ± 0.086,1.22 ± 0.047
C[N+](C)(C)CC(O)CC(=O)[O-] (configuration not stated),0.978 ± 0.032,0.91 ± 0.16
COC(=O)[C@H](Cc1ccccc1)NC(=O)[C@@H](N)CC(=O)O,0.969 ± 0.022,0.953 ± 0.032
COc1cc(CNC(=O)CCCC/C=C/C(C)C)ccc1O,0.728 ± 0.068,1.02 ± 0.1
O=C(NCCCN1CCOCC1)c1ccc(Cl)cc1,1.25 ± 0.11,1.35 ± 0.15
C[C@]12CC[C@@H]3c4ccc(O)cc4C[C@@H](CCCCCCCCC[S+]([O-])CCCC(F)(F)C(F)(F)F)[C@H]3[C@@H]1CC[C@@H]2O (some centres not stated),1.03 ± 0.022,1.03 ± 0.012
CO/N=C(\C(=O)N[C@@H]1C(=O)N2C(C(=O)O)=C(COC(C)=O)CS[C@H]12)c1csc(N)n1,0.898 ± 0.017,0.178 ± 0.0072

Compound,normalized intracellular growth (time point: T3 (3 h)),normalized intracellular growth (time point: Tfinal (~6 h))
CC(C)[C@H](N)C(=O)OCCOCn1cnc2c(=O)nc(N)[nH]c21,0.939 ± 0.015,0.75 ± 0.054
CC1(C)O[C@@H]2C[C@H]3[C@@H]4C[C@H](F)C5=CC(=O)C=C[C@]5(C)[C@@]4(F)[C@@H](O)C[C@]3(C)[C@]2(C(=O)CO)O1,0.912 ± 0.038,0.864 ± 0.022
COc1cc(NS(=O)(=O)c2ccc(N)cc2)ncn1,0.981 ± 0.045,0.984 ± 0.042
CCCCCCCC/C=C\CCCCCCCC(=O)O.NCCO,1.05 ± 0.035,1.09 ± 0.041
Cc1cc(C)nc(NS(=O)(=O)c2ccc(N)cc2)n1,1 ± 0.061,0.986 ± 0.059
CN(C(=O)CN(CCO)CC(=O)N(C)C(C)(C)Cc1ccccc1)C(C)(C)Cc1ccccc1,0.944 ± 0.065,1.13 ± 0.2
COC(=O)N/N=C/c1c[n+]([O-])c2ccccc2[n+]1[O-],0.957 ± 0.032,0.309 ± 0.16
C[C@@H]1C/C=C/C=C/C=C/C=C/[C@H](O[C@@H]2O[C@H](C)[C@@H](O)[C@H](N)[C@@H]2O)C[C@@H]2O[C@](O)(C[C@@H](O)C[C@H]3O[C@@H]3/C=C/C(=O)O1)C[C@H](O)[C@H]2C(=O)O,1.08 ± 0.014,0.574 ± 0.077
COc1ccc(Cl)cc1C(=O)NCCc1ccc(S(=O)(=O)NC(=O)NC2CCCCC2)cc1,0.987 ± 0.047,1.21 ± 0.021
CC#C[C@]1(O)CC[C@H]2[C@@H]3CCC4=CC(=O)CCC4=C3[C@@H](c3ccc(N(C)C)cc3)C[C@@]21C,0.979 ± 0.068,1.17 ± 0.17
CCCCCCNC(=O)n1cc(F)c(=O)[nH]c1=O,1 ± 0.021,0.593 ± 0.4
O=C(CCBr)N1CCN(C(=O)CCBr)CC1,0.9595 ± 0.0073,1.08 ± 0.16
N[C@H]1CONC1=O,0.98 ± 0.079,0.934 ± 0.19
CCCCC1C(=O)N(c2ccccc2)N(c2ccc(O)cc2)C1=O (configuration not stated),1.02 ± 0.013,1.24 ± 0.086
COc1cc2nc(N3CCN(C(=O)C4COc5ccccc5O4)CC3)nc(N)c2cc1OC (configuration not stated),0.957 ± 0.047,0.951 ± 0.058
CC(=O)Nc1ccc(OC(=O)c2ccccc2O)cc1,0.991 ± 0.031,1.05 ± 0.11
CC(C)(CO)[C@@H](O)C(=O)NCCC(=O)O [PANTOTHENIC ACID(d) Na salt],1.02 ± 0.15,1.04 ± 0.2
CCN(CC)C(=O)C1(c2ccccc2)CC1CN (configuration not stated),0.959 ± 0.0089,1.11 ± 0.052
Cc1cc(C(C)(C)C)cc(C)c1CC1=NCCN1,0.9935 ± 0.0047,0.994 ± 0.053
CCN(CCCCOC(=O)c1ccc(OC)c(OC)c1)C(C)Cc1ccc(OC)cc1 (configuration not stated),1.05 ± 0.041,0.957 ± 0.049
CCN(CC)CCOCCOC(=O)C1(c2ccccc2)CCCC1,1.01 ± 0.028,1.13 ± 0.19
CC#CCn1c(N2CCC[C@@H](N)C2)nc2c1c(=O)n(Cc1nc(C)c3ccccc3n1)c(=O)n2C,1.03 ± 0.054,1.2 ± 0.078

Compound,normalized intracellular growth (time point: T3 (3 h)),normalized intracellular growth (time point: Tfinal (~6 h))
O=C(O)c1ccc[n+]([O-])c1,0.967 ± 0.051,1.05 ± 0.023
NC[C@H]1O[C@H](O[C@H]2[C@H](O)[C@@H](O[C@H]3O[C@H](CO)[C@@H](O)[C@H](N)[C@H]3O)[C@H](N)C[C@@H]2N)[C@H](N)C[C@@H]1O,1.06 ± 0.055,1.04 ± 0.074
CCOC(=O)Nc1nc2ccccc2[nH]1,0.752 ± 0.1,1.17 ± 0.12
CN(C)C(=N)NC(=N)N,1.02 ± 0.025,1.05 ± 0.023
NCCCCCC(=O)O,0.962 ± 0.063,1.06 ± 0.13
CNCCc1ccccn1,0.9551 ± 0.0034,0.965 ± 0.033
CC1=C(C)C(=O)C(C(CCCCCC(=O)O)c2ccccc2)=C(C)C1=O (configuration not stated),0.994 ± 0.042,1.18 ± 0.085
CC=CC(=O)N(CC)c1ccccc1C,1.09 ± 0.047,1.14 ± 0.05
CC1CC2C3CCC4=CC(=O)C=CC4(C)C3(F)C(O)CC2(C)C1C(=O)CO (configuration not stated),0.923 ± 0.035,0.988 ± 0.15
CCCCCCCCCCCCCCCC(=O)OC[C@H](O)[C@H]1OC(=O)C(O)=C1O,0.947 ± 0.02,0.972 ± 0.077
Nc1nc2c(ncn2COC(CO)CO)c(=O)[nH]1,0.973 ± 0.038,1.04 ± 0.17
Clc1cccc(Cl)c1NC1=NCCN1,1 ± 0.034,0.772 ± 0.087
C[C@]12C=CC(=O)N[C@@H]1CC[C@@H]1[C@@H]2CC[C@]2(C)[C@@H](C(=O)Nc3cc(C(F)(F)F)ccc3C(F)(F)F)CC[C@@H]12,1.01 ± 0.021,1.06 ± 0.14
CO[C@H]1/C=C/O[C@@]2(C)Oc3c(C)c(O)c4c(O)c(c5c(nc6cc(C)ccn65)c4c3C2=O)NC(=O)/C(C)=C\C=C\[C@H](C)[C@H](O)[C@@H](C)[C@@H](O)[C@@H](C)[C@H](OC(C)=O)[C@@H]1C,0.993 ± 0.022,1 ± 0.027
Cc1cc(O)c(C(=O)N[C@@H](C(=O)N[C@@H]2C(=O)N3C(C(=O)O)=C(CSc4nnnn4C)CS[C@H]23)c2ccc(O)cc2)cn1,1.04 ± 0.026,1.04 ± 0.23
CCCNC(=O)NS(=O)(=O)c1ccc(Cl)cc1,0.923 ± 0.032,0.943 ± 0.062
CCN(CC)C(C)CN1c2ccccc2Sc2ccccc21 (configuration not stated),0.774 ± 0.014,0.971 ± 0.038
CC(=O)O[C@]1(C(C)=O)CC[C@H]2[C@@H]3C=C(Cl)C4=CC(=O)CC[C@]4(C)[C@H]3CC[C@@]21C,0.963 ± 0.021,1.1 ± 0.065
CN(C)CCOC(c1ccccc1)c1ccccc1.Cn1c(=O)c2[nH]c(Cl)nc2n(C)c1=O,1.01 ± 0.043,1.03 ± 0.031
O=C1NCC2(CCN(CCc3ccccc3)CC2)O1,1.06 ± 0.08,0.971 ± 0.11

# One compound at a time (already shown). Values in the order: normalized intracellular growth (time point: T3 (3 h)) | normalized intracellular growth (time point: Tfinal (~6 h))
# CCCCC(CC)COc1ccc(-c2nc(-c3ccc(OC)cc3)nc(-c3ccc(OCC(CC)CCCC)cc3O)n2)c(O)c1 (configuration not stated) as listed: 1.02 ± 0.065 | 1.1 ± 0.17
# CO/N=C(\C(=O)N[C@@H]1C(=O)N2C(C(=O)O)=C(COC(C)=O)CS[C@H]12)c1csc(N)n1 as listed: 0.898 ± 0.017 | 0.178 ± 0.0072
# CN(C)C(=N)NC(=N)N as listed: 1.02 ± 0.025 | 1.05 ± 0.023
# CC(C)(CO)[C@@H](O)C(=O)NCCC(=O)O [PANTOTHENIC ACID(d) Na salt] as listed: 1.02 ± 0.15 | 1.04 ± 0.2
